# Results are given in words; binding and its absence hold for the method and conditions named. Binding seen in cells or lysates may run through a third protein. Some binding calls cover weakened binding; strength is not graded here. For some of these results: Sequences can lack the tags named with a protein.
# Sequences of proteins named here, by UniProt entry; tags and fusion partners are left off. A change or cut given only in a name is not applied to a line headed by its entry.
# UniProt Q8TDD1: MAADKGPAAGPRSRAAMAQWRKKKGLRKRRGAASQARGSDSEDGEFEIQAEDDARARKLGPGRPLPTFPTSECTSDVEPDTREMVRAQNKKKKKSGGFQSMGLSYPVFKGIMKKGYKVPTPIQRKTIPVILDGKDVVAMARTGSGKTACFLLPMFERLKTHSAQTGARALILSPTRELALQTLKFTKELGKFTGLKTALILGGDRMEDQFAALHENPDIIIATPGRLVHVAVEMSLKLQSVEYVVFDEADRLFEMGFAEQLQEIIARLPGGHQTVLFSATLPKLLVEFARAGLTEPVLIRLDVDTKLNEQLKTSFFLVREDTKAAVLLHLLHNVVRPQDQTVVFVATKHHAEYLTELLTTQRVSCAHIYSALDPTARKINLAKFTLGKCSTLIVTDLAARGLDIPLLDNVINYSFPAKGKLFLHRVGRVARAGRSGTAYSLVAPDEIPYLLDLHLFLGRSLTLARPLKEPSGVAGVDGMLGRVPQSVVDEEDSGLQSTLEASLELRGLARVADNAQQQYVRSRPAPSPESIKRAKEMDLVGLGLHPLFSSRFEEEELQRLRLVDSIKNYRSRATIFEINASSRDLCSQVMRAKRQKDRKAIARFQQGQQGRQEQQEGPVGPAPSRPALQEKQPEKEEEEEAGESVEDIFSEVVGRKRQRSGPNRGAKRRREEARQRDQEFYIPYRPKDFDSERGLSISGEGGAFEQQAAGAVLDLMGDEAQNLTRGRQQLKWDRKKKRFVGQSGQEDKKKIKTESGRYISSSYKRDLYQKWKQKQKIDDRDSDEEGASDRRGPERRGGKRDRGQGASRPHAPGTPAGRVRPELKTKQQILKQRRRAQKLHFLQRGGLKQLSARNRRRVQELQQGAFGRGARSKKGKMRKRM
# How the values were obtained:
# [1] = biological target: DDX54-Flag (DEAD-box helicase 54, tagged, overexpressed) (UniProt Q8TDD1); assay: co-IP
# [2] = biological target: DDX54 D250A (ATPase-deficient DDX54 mutant, tagged, overexpressed) (UniProt Q8TDD1); assay: co-IP
binding [1],binding [2],Molecule
binds,binds,"ALKBH5-Flag (AlkB homolog 5, tagged, overexpressed) (from UniProt Q6P6C2-2 1-394) (enzyme)"
binds,–,"METTL3 (m6A methyltransferase-like 3, tagged, overexpressed) (from UniProt Q86U44-1 1-580) (enzyme)"
binds,–,"METTL14 (tagged, overexpressed) (enzyme, UniProt Q9HCE5 1-456) MDSRLQEIRERQKLRRQLLAQQLGAESADSIGAVLNSKDEQREIAETRETCRASYDTSAPNAKRKYLDEGETDEDKMEEYKDELEMQQDEENLPYEEEIYKDSSTFLKGTQSLNPHNDYCQHFVDTGHRPQNFIRDVGLADRFEEYPKLRELIRLKDELIAKSNTPPMYLQADIEAFDIRELTPKFDVILLEPPLEEYYRETGITANEKCWTWDDIMKLEIDEIAAPRSFIFLWCGSGEGLDLGRVCLRKWGYRRCEDICWIKTNKNNPGKTKTLDPKAVFQRTKEHCLMGIKGTVKRSTDGDFIHANVDIDLIITEEPEIGNIEKPVEIFHIIEHFCLGRRRLHLFGRDSTIRPGWLTVGPTLTNSNYNAETYASYFSAPNSYLTGCTEEIERLRPKSPPPKSKSDRGGGAPRGGGRGGTSAGRGRERNRSNFRGERGGFRGGRGGAHRGGFPPR"
